No constants are given. Whether binding was seen depends on the method and setting. In cells and extracts the contact can be indirect. A result given as binding can be weak or reduced; the word gives no strength.
Molecular target: GST-TbSpef1 (T. brucei) (UniProt Q583Z0)
Assay: pull-down; GST-TbSpef1 on glutathione sepharose 4B beads as bait; T. brucei lysate with NHL1-3HA as prey; 25 mM Tris-HCl pH 7.6, 150 mM NaCl, 1 mM DTT, 1% NP-40; 1 h at 4 °C; anti-HA Western blot; only the target purified

Protein sequences, listed by entry. Tags and fused reporters are not part of them. Lines headed by an entry give the natural chain unless they say otherwise; changes in a name come on top.
UniProt Q583Z0: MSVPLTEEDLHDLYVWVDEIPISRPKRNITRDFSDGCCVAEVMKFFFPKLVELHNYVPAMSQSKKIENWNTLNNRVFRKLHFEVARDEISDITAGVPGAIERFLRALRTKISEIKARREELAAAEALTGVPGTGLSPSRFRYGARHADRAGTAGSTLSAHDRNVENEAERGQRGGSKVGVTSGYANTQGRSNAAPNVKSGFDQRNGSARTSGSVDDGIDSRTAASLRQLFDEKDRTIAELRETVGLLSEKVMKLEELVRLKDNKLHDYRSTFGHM

Question: For NHL1-3HA (from UniProt Q38EV3), which binding is on record?
Answer: The binding was “binds”.
